# Literature values, collected in patent US9944583B2, “Methods for ameliorating and preventing central nervous system inflammation” (THE REGENTS OF THE UNIVERSITY OF CALIFORNIA, priority 2007, dated 2018).
# At least one structure is not confirmed: it was looked up by name or label, or the drawing left a doubt.
# Details: cited from earlier work
compound,measurement,value
COc1cc(C(C)=O)cc(-c2cc(C(C)=O)cc(OC)c2O)c1O [diapocynin],lipophilicity relative to apocynin,13 times
